# PubChem BioAssay AID504808 – Drosophila RNAi Screening Center, 2011
# Aim: 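Chromatin factors that keep E2F targets switched off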 (primary screen)
# System: Drosophila S2 cells
# Reagent: long dsRNA against Drosophila genes
# Measured: 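Firefly luciferase driven by E2F sites, normalised to Renilla luciferase on the same minimal promoter, measured by plate reader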
# Scale: E2F firefly: higher = more E2F reporter activity; Renilla normaliser: higher = more normaliser reporter signal
# Hit rule: 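Called active if the normalised E2F reporter went up by over 50%; the cutoff is arbitrary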
# In all, the deposit lists about 21,000 reagents; below is an unselected part of those that have a named target and a result. In the full data, 18 (0.084%) were called active. 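Raw counts without plate normalisation, one of two replicates; the ratio scores behind the calls were not deposited.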 Unmarked entries are inactive. The numbers tell different reagents against one gene apart. Names joined by + are all predicted targets of the reagent. Not stated in the record: the amount of reagent, the time to read-out.
"E2F firefly, rep 1","Renilla normaliser, rep 1",target,reagent no.
1.05e5,6293,CG14260,1
1.30e5,5702,Syx4 (Syntaxin 4),1
69633,3566,U4-U6-60K (U4-U6 small nuclear riboprotein factor 60K),1
94380,4153,"Gmd (GDP-mannose 4,6-dehydratase)",1
1.35e5,6999,Slbp (Stem-loop binding protein),1
79274,4551,Cdk9 (Cyclin-dependent kinase 9),1
1.34e5,7012,yellow-e3,1
80638,4901,Nf-YA (Nuclear factor Y-box A),1
1.50e5,5346,CG18269,1
858,728,gw (gawky),1
30436,4442,gw (gawky),2
1.37e5,4776,Lsm11,1
77582,3575,CG9626,1
1.34e5,6210,SCCRO4 (Squamous cell carcinoma-related oncogene 4),1
88775,2590,Dop1R1 (Dopamine 1-like receptor 1),1
1.28e5,4540,Dop1R1 (Dopamine 1-like receptor 1),2
1.22e5,6770,Spag1 (Spag1 axonemal dynein assembly factor),1
1.11e5,4333,Gr36c (Gustatory receptor 36c),1
1.38e5,6247,CG31740,1
1.35e5,4634,Jon25Bii (Jonah 25Bii),1
1.44e5,5202,Vm26Ac (Vitelline membrane 26Aac),1
88743,3945,muskelin,1
1.03e5,4312,CG13877 + pyx,1
94555,4132,CG14961,1
1.35e5,6630,Mst84B (Male-specific transcript 84B),1
89210,3226,mats (mob as tumor suppressor),1
77291,3848,mats (mob as tumor suppressor),2
1.51e5,4761,Vang (Van Gogh),1
71494,3588,Sdr (Secreted decoy of InR),1
88672,4146,Tret1-1 (Trehalose transporter 1-1),1
90634,4332,Tret1-1 (Trehalose transporter 1-1),2
1.66e5,5797,CG17684,1
1.38e5,6309,CG17684,2
1.37e5,470,nAChRalpha7 (nicotinic Acetylcholine Receptor alpha7),1
1.34e5,5978,nAChRalpha7 (nicotinic Acetylcholine Receptor alpha7),2
1.22e5,7114,Zip89B (Zinc/iron regulated transporter-related protein 89B),1
90580,3484,msl-3 (male-specific lethal 3),1

Sorted by “E2F firefly, rep 1” (low to high): 8 of the entries above.
"E2F firefly, rep 1","Renilla normaliser, rep 1",target,reagent no.
71494,3588,Sdr (Secreted decoy of InR),1
77291,3848,mats (mob as tumor suppressor),2
88672,4146,Tret1-1 (Trehalose transporter 1-1),1
90634,4332,Tret1-1 (Trehalose transporter 1-1),2
1.37e5,470,nAChRalpha7 (nicotinic Acetylcholine Receptor alpha7),1
1.38e5,6309,CG17684,2
1.51e5,4761,Vang (Van Gogh),1
1.66e5,5797,CG17684,1

The list goes on.
"E2F firefly, rep 1","Renilla normaliser, rep 1",target,reagent no.
79226,3952,Cdk5 (Cyclin-dependent kinase 5),1
86180,3385,CG10211,1
94980,3972,Nepl3 (Neprilysin-like 3),1
49227,3760,sc (scute),1
73801,3824,CG6931,1
1.45e5,4835,CG8249,1
1.42e5,3929,CG32148,1
79304,5757,"Polr2L (RNA polymerase II, I and III subunit L)",1
1.01e5,4650,Girdin,1
91643,3780,CG5968,1
1.31e5,6396,CG4520,1
1.49e5,6018,SWIP (Strumpellin and WASH-interacting protein),1
78429,3058,Dcp-1 (Death caspase-1),1
73851,3328,spz6 (spatzle 6),1
1.71e5,7996,CG13051,1
97207,3904,CG12782,1
2.46e5,7983,CG6867,1
91358,3632,CG10859,1
68553,3405,Mic26-27 (MICOS subunit 26/27),1
1.41e5,6556,CG7794,1
60716,3871,Prosbeta7 (Proteasome beta7 subunit),1
1.25e5,6351,Sems (Seminase),1
1.40e5,5847,beat-IIIa (beaten path IIIa),1
1.40e5,6133,beat-IIIa (beaten path IIIa),2
1.09e5,4924,beat-IIIa (beaten path IIIa),3
74899,3765,MAN1,1
1.09e5,5262,CG8138,1
1.32e5,5403,Elys,1
70859,3007,Plzf (Promyelocytic leukemia zinc finger),1
1.28e5,6202,Cpr100A (Cuticular protein 100A),1
1.43e5,5477,CG10953,1
48965,3110,CG5532,1
67421,3409,Hsp23 (Heat shock protein 23),1
1.42e5,5010,GstT1 (Glutathione S transferase T1),1
1.62e5,8063,CG13699,1
65249,3247,Wdr37 (WD repeat domain 37),1
69860,3371,slif (slimfast),1
1.14e5,4454,CG18368,1
1.38e5,5698,CR30068 (retired record),1
97294,4499,CG12661,1
93856,3109,CG18266,1
1.31e5,6687,udt (undicht),1
1.38e5,6888,CG34409,1
1.11e5,5456,Hmx (H6-like-homeobox),1
94734,4460,Hmx (H6-like-homeobox),2
71023,3416,CG14882,1
2018,1240,mey (morpheyus),1
